Results published in publication PMC7064499.

Sequences of proteins named here, by UniProt entry; tags and fusion partners are left off. A change or cut given only in a name is not applied to a line headed by its entry.
UniProt Q48GF5: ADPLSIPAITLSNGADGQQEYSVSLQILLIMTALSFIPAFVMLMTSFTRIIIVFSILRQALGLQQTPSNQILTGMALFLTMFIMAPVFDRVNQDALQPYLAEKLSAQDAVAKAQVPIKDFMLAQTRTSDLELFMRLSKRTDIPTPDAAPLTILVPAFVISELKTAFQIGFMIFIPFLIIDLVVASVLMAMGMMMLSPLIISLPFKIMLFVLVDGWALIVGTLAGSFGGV

B1: FliR, P. savastanoi (protein, UniProt Q48GF7 1-258)
chain: MLALTDIQISTWVASFMLPMFRIVALLMTMPVIGTTLVPRRVRLYLAFAITVVVAPALPAMPPVQALDLSGLLLIGEQIIIGAGMGLSLQMFFHIFVIAGQIISTQMGMGFASMVDPTNGVSSAVIGQFFTMLVTLLFLFMNGHLVVLEVLVESFTTMPVGGGLLVNNFWELANGLGWALSSGLRLVLPAITALLIINIAFGVMTRAAPQLNIFSIGFPLTLVLGMVILWMSMGDILNQYQPIASQALQSLRDMVRAR
B2: FliR, V. mimicus polar flagellum (protein, UniProt A0A2J9VIH1 1-258)
chain: MAITFAELSAILGQLWWPFFRVGAVFISMPFFGDALIPIWVRSLLALAIVVITAPLIPTMPAVDLFSMTSLFLAFEQVIWGIIFGLILHMLFTVFAMLGQIVSLQMGLGMAMMNDPVNGISVAVLGRLFLIFSTLLFLALEGHLLVIDVLIQSFVIWPVGSGITSLSLQGVINAFGWMFASSLALALPAIISMLLANISFGVMNRAAPSLNIYALGFPMTMLLGLFSVLISVSGIPDRYTDLVHNTLQYLNNFILGGV

Columns and labels:
[1] = biological target: FliP, P. savastanoi (Pseudomonas savastanoi pv. phaseolicola 1448A (DSM 21482)) (UniProt Q48GF5); test: cryo-EM structure; both purified
[2] = biological target: FliP, V. mimicus polar flagellum (Vibrio mimicus (strain DSM 19130)); test: cryo-EM structure; both purified

Binder | binding [1] | binding [2]
B1 | binds | 
B2 |  | binds

These are yes or no findings as the source states them, for the method shown. Binding calls can cover weak binding; strength is not graded here. For some assays here: Tags and fused reporters may be left off the sequences shown.
